Here are results for 39 compounds from PubChem BioAssay AID2685 (National Center for Advancing Translational Sciences (NCATS), 2010).

The list shows a part of the results. Further columns of the screen follow, without active or inactive calls. Compounds called inactive in the main read-out are mostly missing here. Potencies come from curve fits of mixed quality, noted in brackets.

The experiment can be described thus: qHTS Assay for Lipid Storage Modulators in Drosophila S3 Cells.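 As to cell number change: cells counted by Cell Tracker Red CMTPX staining in the red channel.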 The following applies: BODIPY lipid droplet fluorescence, 18-24 h; for cell number change: measured here: cell count max response, cells fed with added oleic acid. In short, it runs like this: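 Drosophila S3 cells got compounds at several concentrations plus oleic acid (400 uM solution). Laser-scanning cytometry with 488 nm excitation read lipid droplets at 500-530 nm and cells at 575-640 nm. Percent activity was relative to 20 uM Triacsin C.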
Background: qHTS replaces the single test concentration by a dilution series.

Setting [1] is: measured here: lipid fluorescence (Fed channel) AC50, cells fed with added oleic acid.
Where [2] appears, read: measured here: cell number channel AC50, cells fed with added oleic acid.

As for `CC1CCN(S(=O)(=O)c2ccc3c(ccn3CC(=O)O)c2)CC1`, the cell number change was found to be 15%.

In the case of `Clc1ccc(/C=N/NC(=Nc2ccccc2)c2ccccn2)c(Cl)c1`, the cell number change was -10.3%. Also, the AC50 under setting [1] is 29.1 µM [falling, single point].

`C=CCn1c(=N)n(CC(=O)c2ccc(Cl)cc2)c2ccccc21`: the AC50 under setting [1] was 29.1 µM [rising, single point].

For the compound `CCCNC(=O)c1onc(CSc2ccc(Cl)cc2)c1C(=O)NC(C)C`, the cell number change was -0.066%. The AC50 under setting [1] is 0.00461 µM [falling, full curve, poor fit].

With `CCCCCC(=O)NNC(=O)c1ccc(-c2ccccc2)cc1`, the half-maximal activity concentration (AC50) was 1.16 µM [rising, full curve] under setting [2] and 0.82 µM [rising, partial curve] under setting [1].

In the case of `CC(C)(C)c1ccc(-n2nc(C#N)c(Cl)cc2=O)cc1`, the cell number change was -76.8%. Further, the AC50 under setting [1] is 29.1 µM [falling, single point].

As to `COc1ccc(NC(=O)C(=O)NCCN2CCN(C(=O)c3cccc(Br)c3)CC2)cc1`, the cell number change was -0.959%. For the same compound, the AC50 under setting [1] is 10 µM [rising, partial curve, poor fit].

With `N#Cc1ccsc1NC(=O)C1CC(=O)N(Cc2ccccc2)C1` (stereo not given), the cell number change was -18%. The AC50 under setting [1] was 20.6 µM [falling, single point].

With `CC(OC(=O)C1=NNC(=O)CC1)C(=O)Nc1ncc(Cl)cc1Cl` (stereo not given), the cell number change was -22.4%.

Regarding `CCc1cc2c(NCCO)ncnc2s1`, the cell number change came to 28.2%. For the same compound, the half-maximal activity concentration (AC50) under setting [2] was 0.82 µM [rising, full curve, poor fit]. The AC50 under setting [1] is 20.6 µM [rising, partial curve, poor fit].

With `Cc1ccc(SCCN)cc1C`, the cell number change was 22.7%.

As to `COc1ccc(Cn2nnnc2C(c2ccccc2)N2CCN(C3CCCC3)CC2)cc1` (stereo not given), the cell number change came out at 44.5%. For the same compound, under setting [2], the AC50 is 5.17 µM [rising, full curve].

In the case of `Cc1ccc(-c2nc(CS(=O)CC(=O)NCCN(CC(C)C)CC(C)C)c(C)o2)cc1` (stereo not given), the cell number change was -106%. The AC50 under setting [2] is 29.1 µM [falling, single point].

Turning to `COc1ccc(Nc2nc(N3CCOCC3)nc(N3CCOCC3)n2)cc1Cl`, the cell number change was -48.1%. The AC50 under setting [2] is 16.4 µM [falling, partial curve]. In addition, under setting [1], the AC50 is 29.1 µM [falling, single point].

Consider `O=C(O)C1CCCCC1C(=O)NCCc1ccccc1` (stereo not given), for which the cell number change was -7.34%. The AC50 under setting [1] is 0.731 µM [falling, full curve, poor fit].

With `CCOC(=O)Cn1c(=O)c2c(nc(Br)n2Cc2ccc(Cl)cc2)n(C)c1=O`, the cell number change was -40.3%. Besides, the AC50 under setting [2] is 0.82 µM [falling, full curve, poor fit].

Consider `Cc1nc(=O)c(-c2ccccc2)c(C)n1-c1ccccc1`, for which the cell number change is -0.552%. For the same compound, the AC50 under setting [1] is 6.51 µM [falling, single point].

`CCOC(CNC(=O)Cc1c(C)nc2c(-c3ccccc3)c(C)nn2c1C)OCC`: the cell number change was determined as 28.2%.

For the compound `COc1ccc(S(=O)(=O)NCCSCc2ccco2)cc1`, the cell number change is 14.5%. In addition, under setting [1], the AC50 was 6.51 µM [falling, single point].

Turning to `O=C(c1ccc2ccccc2c1)N1CCCCC1`, the cell number change was -9.21%. The AC50 under setting [1] is 15.8 µM [falling, single point].

As to `CCCN1C2CCCC1CC(NC(=O)c1ccc(C(C)(C)C)cc1)C2` (stereo not given), the cell number change was -9.46%. Further, under setting [1], the AC50 is 4.61 µM [falling, single point].

With `CCCc1cc(=O)oc2cc(OCC(=O)NCCCN3CCOCC3)ccc12`, the cell number change stood at 135%. Also, the AC50 under setting [2] is 29.1 µM [rising, single point].

`COc1ccc(C)cc1N(C(=O)CNC(=O)c1ccco1)C(C(=O)NC1CCCC1)c1cccnc1` (stereo not given): the cell number change was found to be 32.4%. Moreover, under setting [2], the AC50 is 14.6 µM [rising, single point]. The AC50 under setting [1] was 4.11 µM [rising, single point].

As to `CCOc1ccc(OCCn2ccnc2)cc1`, the cell number change was -4.94%. The concentration at half-maximal activity (AC50) under setting [1] is 0.092 µM [falling, partial curve, poor fit].

`Cc1cc(C)c2nc(NNC(=O)c3ccc(S(=O)(=O)N4CCCC(C)C4)cc3)sc2c1` (stereo not given): the cell number change is -41.2%. For the same compound, the AC50 under setting [2] is 20.6 µM [falling, partial curve, poor fit]. Besides, under setting [1], the AC50 is 23.1 µM [falling, partial curve].

On to `COc1cc(/C=C2\C(=N)N3N=C(N4CCOCC4)SC3=NC2=O)ccc1OC(=O)c1ccccc1`, for which the cell number change was -33.7%. The AC50 under setting [2] was 23.1 µM [falling, single point]. For the same compound, the AC50 under setting [1] is 0.164 µM [falling, full curve].

On to `Cc1ccc(CNCc2cc(Cl)ccc2O)cc1`, for which the cell number change was -34.8%. Also, the AC50 under setting [2] is 9.2 µM [falling, partial curve].

As for `Cc1ccc(C(=O)NCCSc2ccc(Cl)cc2)cc1S(=O)(=O)Nc1ccccc1`, the cell number change was -28.9%. Also, the AC50 under setting [2] was 4.11 µM [falling, full curve, poor fit].

As to `O=C(NCCCN1CCOCC1)c1ccc2c(c1)N(Cc1cccc(Cl)c1)C(=O)CS2`, the cell number change is -2.38%. Moreover, the AC50 under setting [1] was 6.51 µM [rising, single point].

With `Cc1cccnc1NC(=O)CCCN1C(=O)c2ccccc2C1=O`, the AC50 was 0.00461 µM [rising, full curve, poor fit] under setting [2] and 0.411 µM [rising, full curve] under setting [1].

For `CCN(Cc1nc2ccccc2c(=O)[nH]1)Cc1cc(=O)oc2cc(OC)ccc12`, the cell number change stood at 23.2%. Also, the AC50 under setting [1] was 23.1 µM [rising, single point].

For the compound `COC(=O)CN1C(=O)N/C(=C/c2ccccc2OC)C1=O`, the cell number change was 17.5%. Also, the AC50 under setting [1] is 23.1 µM [rising, single point].

With `CCN(CCCCOC(=O)c1ccc(OC)c(OC)c1)C(C)Cc1ccc(OC)cc1` (stereo not given), the cell number change is 10.9%. Also, the AC50 under setting [1] was 6.51 µM [falling, single point].

As to `CN(C)c1ccc(CNS(=O)(=O)c2csc(C(N)=O)c2)cc1`, the cell number change is -8.96%. In addition, under setting [1], the AC50 is 0.206 µM [falling, full curve, poor fit].

On to `Cc1[nH]c2ccccc2c1/C=N/NC(=S)NC(C)C`, for which the cell number change is -87.4%. In addition, the AC50 under setting [2] was 0.0164 µM [falling, full curve, poor fit].

For `COc1ccc(NS(=O)(=O)c2cc3c(cc2C)N(C)CCO3)cc1`, the AC50 under setting [1] is 1.64 µM [rising, partial curve].

With `CSc1ncc(C(=O)Nc2cccc(Cl)c2)c(C)n1`, the cell number change was -22.7%. For the same compound, the AC50 under setting [1] was 0.58 µM [rising, single point].

For `COc1ccc(Cl)cc1NC(=S)NNC(=O)c1cccnc1`, the cell number change is -3.99%.

With `COc1ccccc1N(CC(=O)NC1CCCCC1)S(=O)(=O)c1ccccc1`, the cell number change was -1.71%.

What is called AC50 is the concentration giving half of the maximal activity seen. High values mean activity only at high concentration, low ones activity at low concentration.
